Test results from publication PMC5036196.
Results are given in words; binding and its absence hold for the method and conditions named.

Molecular target: ARB2-M0 (residues Ile512, Ile523 and Leu525 mutated to Ala) (Saccharomyces cerevisiae) (UniProt P53973)
Test: SEC; Superdex 200 10/300 GL, 0.5 ml/min, 25 mM Tris-HCl pH 7.5, 200 mM NaCl; apparent molecular mass against standard proteins; both purified

binding: no binding
B1: ARB2-M0 (residues Ile512, Ile523 and Leu525 mutated to Ala) (domain or fragment, UniProt P53973 457-698)
chain: LQKAIRQQQQHYLSDEFNFVTLPLVSMDLPDNTVLCTPNISESNTIIIVVHDTSDAWAKRNVISGTADASSSVIIDNSLDFIKWGLDRKYGIIDVNIPLTLFEPDNYSGMITSQEVLIYLWDNYIKYFPSVAKIAFIGIGDSYSGIVHLLGHRDTRAVTKTVINFLGDKQLKPLVPLVDETLSEWYFKNSLIFSNNSHQCWKENESRKPRKKFGRVLRCDTDGLNNIIEERFEEATDFILDS
